Assay results reported in PubChem BioAssay AID248 (DTP/NCI, 2004).
The list shows only some results of the screen, not a fair sample: it is rich in T/C values a quarter to a half above the control, in often repeated tests (any T/C) and in doses without a T/C. Other doses and runs of a compound stand elsewhere. T/C gives the treated animals as a percentage of the vehicle group. Some entries give survivors of the animals treated and no T/C: the source files T/C as zero there, which appears to mark a toxic dose or a test without result, not a measured value. Some survivor counts are full or nearly so, which does not show that the dose was tolerated: the source hardly ever lists a survival T/C far under the control, and the zero likely stands for such cases as well. Survivors were counted at the toxicity check, usually on the fifth day, unless a day is given; later deaths do not show. Schedules are NCI's codes, read here as Q, the interval in days (D) or hours (H), X, the number of doses. Some doses were run more than once; the values are given in rising order. Some schedules carry Z or #; the key to these is not given. For survival time, this PubChem deposit counts one and a half times the control or more as active, and values a quarter to a half above the control carry no call in these data; other NCI protocols may use other cut-offs. Some T/C values are followed by the survivors on the day toxicity was checked, most often the fifth; without a count, all were alive then.

Test system: L1210 leukemia ip in BDF1 mice, survival T/C
Assay: NCI In Vivo Anticancer Drug Screen. Data for tumor model L1210 Leukemia (intraperitoneal) in B6D2F1 (BDF1) mice
Details: T/C endpoint: mean survival time, higher T/C = longer survival
[1] = dose: 100.0 mg/kg/injection, schedule: Q04DX003 (ip), vehicle: saline with Tween-80
[2] = dose: 400.0 mg/kg/injection, schedule: Q04DX003 (ip), vehicle: saline with Tween-80
[3] = dose: 400.0 mg/kg/injection, schedule: Q01DX009 (ip), vehicle: saline with Tween-80
[4] = dose: 200.0 mg/kg/injection, schedule: Q01DX001 (ip), vehicle: saline
[5] = dose: 400.0 mg/kg/injection, schedule: Q01DX001 (ip), vehicle: saline
[6] = dose: 200.0 mg/kg/injection, schedule: Q01DX009 (ip), vehicle: saline
[7] = dose: 400.0 mg/kg/injection, schedule: Q04DX003 (ip), vehicle: Klucel (hydroxypropylcellulose) (HPC)
[8] = dose: 200.0 mg/kg/injection, schedule: Q01DX009 (ip), vehicle: saline with Tween-80
[9] = dose: 300.0 mg/kg/injection, schedule: Q01DX001 (ip), vehicle: saline

Cc1ccc(NC(=O)c2cccc(C(=O)Nc3ccc(C)cc3C)c2)c(C)c1
survivor count [1]: 6 of 6
survivor count [2]: 6 of 6

CCSC(=S)SCC(=O)O
survivor count [2]: 6 of 6

C[C@]12CC[C@@H]3c4ccc(Oc5nc(N6CC6)nc(N6CC6)n5)cc4CC[C@H]3[C@@H]1CCC2=O
survivor count (dose: 50.0 mg/kg/injection, schedule: Q01DX009 (ip), vehicle: steroid suspending solution): 1 of 6
survivor count (dose: 100.0 mg/kg/injection, schedule: Q01DX009 (ip), vehicle: steroid suspending solution): 0 of 6
survivor count (dose: 200.0 mg/kg/injection, schedule: Q01DX009 (oral), vehicle: carboxymethylcellulose (CMC)): 0 of 6
survivor count (dose: 200.0 mg/kg/injection, schedule: Q04DX003 (sc), vehicle: steroid suspending solution): 5 of 6
survivor count (dose: 400.0 mg/kg/injection, schedule: Q04DX003 (sc), vehicle: steroid suspending solution): 3 of 6

Cc1ccc(N=Nc2ccc(C)cc2NC(=O)c2c(Br)c(Br)c(Br)c(Br)c2C(=O)O)cc1
survivor count [3]: 1 of 6

CC(=O)N(C)c1ccccc1
survivor count (dose: 200.0 mg/kg/injection, schedule: Q04DX002 (ip), vehicle: saline): 2 of 3
survivor count (dose: 400.0 mg/kg/injection, schedule: Q04DX002 (ip), vehicle: saline): 1 of 3

c1ccc2c(c1)Sc1ccccc1N2CCCN1CCCC1
survivor count (dose: 100.0 mg/kg/injection, schedule: Q04DX003 (ip), vehicle: saline): 3 of 6
survivor count [4]: 0 of 3 and 0 of 4
survivor count [5]: 0 of 4

Cc1nc(C(=O)O)cs1
survivor count [6]: 5 of 6
survivor count (dose: 400.0 mg/kg/injection, schedule: Q01DX001 (ip), vehicle: acetone): 2 of 6

Cc1ccc(NC(=O)OC/C=C/c2ccccc2)c(Cl)c1
survivor count (dose: 400.0 mg/kg/injection, schedule: Q01DX009 (ip), vehicle: Klucel (hydroxypropylcellulose) (HPC)): 6 of 6

Cn1cnc([N+](=O)[O-])c1Sc1nc(N)nc2c1ncn2C1CC(O)C(CO)O1 (stereo not drawn)
T/C (dose: 12.5 mg/kg/injection, schedule: Q01DX005 (ip), vehicle: saline): 134 % of control
T/C (dose: 25.0 mg/kg/injection, schedule: Q01DX005 (ip), vehicle: saline): 125 % of control
survivor count (dose: 50.0 mg/kg/injection, schedule: Q01DX005 (ip), vehicle: saline): 6 of 6
survivor count (dose: 100.0 mg/kg/injection, schedule: Q01DX005 (ip), vehicle: saline): 6 of 6
survivor count (dose: 200.0 mg/kg/injection, schedule: Q01DX005 (ip), vehicle: saline): 6 of 6
T/C (dose: 400.0 mg/kg/injection, schedule: Q01DX005 (ip), vehicle: saline): 127 % of control [5 of 6 alive]

Cc1cc(C)c(C#[N+][O-])c(C)c1
survivor count [1]: 6 of 6

CCCCCCCC(=O)N(CC)CC
T/C (dose: 100.0 mg/kg/injection, schedule: Q04DX002 (ip), vehicle: saline): 128 % of control
survivor count [6]: 0 of 3

O=C1C=CC(=O)N1CN1CCOCC1 (tested in a mixture with another compound)
survivor count (dose: 25.0 mg/kg/injection, schedule: Q01DX009 (ip), vehicle: saline): 3 of 3

OC(CN1CC1)c1ccccc1 (stereo not drawn)
survivor count (dose: 80.0 mg/kg/injection, schedule: Q01DX009 (ip), vehicle: Klucel (hydroxypropylcellulose) (HPC)): 5 of 6
survivor count (dose: 100.0 mg/kg/injection, schedule: Q04DX003 (ip), vehicle: Klucel (hydroxypropylcellulose) (HPC)): 5 of 6
survivor count (dose: 200.0 mg/kg/injection, schedule: Q04DX003 (ip), vehicle: Klucel (hydroxypropylcellulose) (HPC)): 2 of 6
survivor count [7]: 0 of 6

CCCN(C(=O)c1cccc([N+](=O)[O-])c1)C(c1ccco1)P(=O)(c1ccccc1)c1ccccc1 (stereo not drawn)
survivor count (dose: 100.0 mg/kg/injection, schedule: Q04DX002 (ip), vehicle: saline with Tween-80): 3 of 3
survivor count [8]: 3 of 3
survivor count (dose: 200.0 mg/kg/injection, schedule: Q04DX002 (ip), vehicle: saline with Tween-80): 3 of 3
survivor count [3]: 3 of 3 and 6 of 6

CNCC(O)c1cccc(O)c1 (stereo not drawn)
survivor count (dose: 50.0 mg/kg/injection, schedule: Q04DX003 (ip), vehicle: saline): 1 of 4

COc1cccc(CCCCO)c1
survivor count [8]: 3 of 3

CC(=O)N(C)N=O
survivor count (dose: 50.0 mg/kg/injection, schedule: Q01DX001 (ip), vehicle: saline): 1 of 6
survivor count (dose: 100.0 mg/kg/injection, schedule: Q01DX001 (ip), vehicle: saline): 0 of 6
survivor count [4]: 0 of 6
survivor count [9]: 0 of 6
survivor count [5]: 0 of 6
survivor count (dose: 500.0 mg/kg/injection, schedule: Q01DX001 (ip), vehicle: saline): 0 of 6
survivor count (dose: 600.0 mg/kg/injection, schedule: Q01DX001 (ip), vehicle: saline): 0 of 6
survivor count (dose: 800.0 mg/kg/injection, schedule: Q01DX001 (ip), vehicle: saline): 1 of 6
survivor count (dose: 1000.0 mg/kg/injection, schedule: Q01DX001 (ip), vehicle: saline): 0 of 6

CC(C)C(=O)[O][Sn]([c]1ccccc1)([c]1ccccc1)[c]1ccccc1
survivor count (dose: 100.0 mg/kg/injection, schedule: Q04DX002 (ip), vehicle: Klucel (hydroxypropylcellulose) (HPC)): 3 of 3
survivor count (dose: 200.0 mg/kg/injection, schedule: Q04DX002 (ip), vehicle: Klucel (hydroxypropylcellulose) (HPC)): 3 of 3
survivor count (dose: 400.0 mg/kg/injection, schedule: Q04DX002 (ip), vehicle: Klucel (hydroxypropylcellulose) (HPC)): 3 of 3

CCCCC(CCCC)NCCO
survivor count (dose: 300.0 mg/kg/injection, schedule: Q01DX001 (ip), vehicle: carboxymethylcellulose (CMC)): 0 of 6

CCOC(=O)C1CSCC1=O (stereo not drawn)
survivor count (dose: 200.0 mg/kg/injection, schedule: Q01DX009 (ip), vehicle: water): 6 of 6
survivor count (dose: 400.0 mg/kg/injection, schedule: Q01DX009 (ip), vehicle: water): 2 of 6

CCCN(CCC)P(c1ccccc1)N(CCC)CCC
survivor count (dose: 400.0 mg/kg/injection, schedule: Q04DX002 (ip), vehicle: saline with Tween-80): 1 of 3

CCC(C)C(CN)(CCCCN1CCOCC1)c1cccc2ccccc12 (stereo not drawn)
survivor count [2]: 6 of 6

Cc1nc(N)sc1N=Nc1ccccc1Br
survivor count [9]: 0 of 6

CCCCN(C)N=Nc1ccccc1C(=O)O
survivor count (dose: 6.25 mg/kg/injection, schedule: Q01DX009 (ip), vehicle: Klucel (hydroxypropylcellulose) (HPC)): 5 of 6
survivor count (dose: 12.5 mg/kg/injection, schedule: Q01DX009 (ip), vehicle: Klucel (hydroxypropylcellulose) (HPC)): 6 of 6
survivor count (dose: 25.0 mg/kg/injection, schedule: Q01DX009 (ip), vehicle: Klucel (hydroxypropylcellulose) (HPC)): 6 of 6
survivor count (dose: 50.0 mg/kg/injection, schedule: Q01DX009 (ip), vehicle: Klucel (hydroxypropylcellulose) (HPC)): 6 of 6

COc1cc(C(=O)CCC(=O)O)c(OC)c(CBr)c1CBr
survivor count (dose: 40.0 mg/kg/injection, schedule: Q01DX001 (ip), vehicle: other): 3 of 6
survivor count (dose: 80.0 mg/kg/injection, schedule: Q01DX001 (ip), vehicle: other): 0 of 6
survivor count (dose: 100.0 mg/kg/injection, schedule: Q01DX001 (ip), vehicle: other): 0 of 6
survivor count (dose: 200.0 mg/kg/injection, schedule: Q01DX001 (ip), vehicle: other): 0 of 6
survivor count (dose: 400.0 mg/kg/injection, schedule: Q01DX001 (ip), vehicle: other): 0 of 6

COCC(CNO)OC(=O)c1ccc(N)cc1 (stereo not drawn)
survivor count (dose: 83.0 mg/kg/injection, schedule: Q01DX Z (ip), vehicle: saline): 5 of 6

O=C(OCS(=O)c1ccccc1)c1ccccc1 (stereo not drawn)
survivor count [7]: 0 of 6

CCCCCCCCC[n+]1ccc(C(N)=O)cc1
survivor count (dose: 200.0 mg/kg/injection, schedule: Q04DX003 (ip), vehicle: saline with Tween-80): 0 of 6
survivor count [2]: 0 of 6
